Test results from PubChem BioAssay AID2685 (National Center for Advancing Translational Sciences (NCATS), 2010).
This is one part of the list. Shown are side measurements of this screen, not its main read-out; they come without a call. The list favours compounds with an active or inconclusive main result. Words in brackets tell the shape of the fitted curve; partial curves, single points and poor fits give uncertain potencies.

Experiment: qHTS Assay for Lipid Storage Modulators in Drosophila S3 Cells;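 for cell number change: cells counted by Cell Tracker Red CMTPX staining in the red channel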
Settings: BODIPY lipid droplet fluorescence, 18-24 h; for cell number change: measured here: cell count max response, cells fed with added oleic acid
Method in brief: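 Laser-scanning cytometry quantifies lipid droplet accumulation (500–530 nm total intensity; droplet/cell object ratio) in oleic acid-fed (400 uM added) Drosophila S3 cells treated with a concentration series. 20 uM Triacsin C defined 100% inhibition.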

[1] = measured here: cell number channel AC50, cells fed with added oleic acid
[2] = measured here: lipid fluorescence (Fed channel) AC50, cells fed with added oleic acid

CC(C)C(C(=O)NC1CCCC1)N(CC1CCCO1)C(=O)CNS(=O)(=O)c1ccccc1 (stereo not drawn)
cell number change: -21.9%
AC50 [1]: 0.164 µM [falling, full curve, poor fit]

CCc1ccc(/C=C2/SC(=S)N(CCC(=O)Nc3cccnc3)C2=O)cc1
cell number change: 16%

Clc1cccc(Cl)c1CNc1ccc(N2CCCC2)cc1
cell number change: 7.12%

CC12CCC(C(=O)N(Cc3ccccc3)Cc3ccccc3)(OC1=O)C2(C)C (stereo not drawn)
cell number change: 50.9%
AC50 [1]: 29.1 µM [rising, single point]
AC50 [2]: 0.517 µM [falling, single point]

Nc1ccc2nc(SCC(=O)c3ccccc3)sc2c1
AC50 [2]: 4.11 µM [rising, full curve]

CCc1ccc(C2=Nn3c(nnc3-c3cccs3)SC2)cc1
cell number change: 12%

COc1cccc(NC(=O)COC(=O)CCCc2c[nH]c3ccccc23)c1
cell number change: 39.4%
AC50 [1]: 29.1 µM [rising, single point]

CC(=O)Nc1ccccc1OCc1nnc(-c2cccs2)o1
AC50 [1]: 0.731 µM [rising, full curve, poor fit]

CNC1=C(N(C(C)=O)c2ccc(Br)cc2)C(=O)c2ccccc2C1=O
cell number change: -42.9%
AC50 [1]: 11.6 µM [falling, partial curve, poor fit]
AC50 [2]: 8.2 µM [falling, partial curve, poor fit]

Cc1ccc(S(=O)(=O)NCC(=O)N2CCN(c3ccc(F)cc3)CC2)cc1
cell number change: 33%
AC50 [1]: 13 µM [rising, partial curve, poor fit]
AC50 [2]: 29.1 µM [rising, single point]

Cc1cnc(C(=O)NC2CC(C)(C)Cc3c2cnn3-c2cccc(F)c2)cn1 (stereo not drawn)
cell number change: -29.1%
AC50 [2]: 3.66 µM [falling, partial curve]

O=C(NCCC1=CCCCC1)C1CCN(c2nnc(-n3cccc3)s2)CC1
cell number change: -89%
AC50 [1]: 11.6 µM [falling, partial curve]
AC50 [2]: 16.4 µM [falling, partial curve]

Cc1ccc(N=C2SCCCN2C(=O)C2=COCCO2)cc1Cl
cell number change: 3.12%
AC50 [1]: 2.31 µM [falling, single point]
AC50 [2]: 1.64 µM [falling, partial curve]

CC1(NC(=O)c2ccccc2)CCN(CCc2cccs2)C1=O (stereo not drawn)
cell number change: -3.84%

CCN(CC)C(=S)SCC(=O)Nc1nc(=O)c2ccccc2s1
cell number change: -1.08%
AC50 [2]: 3.26 µM [rising, partial curve, poor fit]

O=C(c1ccccc1)c1ccc(-n2cnnc2)c([N+](=O)[O-])c1
cell number change: 9.27%
AC50 [2]: 0.0058 µM [falling, full curve, poor fit]

COc1ccc(NC(=O)NNC(=O)c2cc(C3CC3)nc3ccccc23)c(OC)c1
cell number change: -25.2%
AC50 [2]: 29.1 µM [rising, partial curve, poor fit]

O=C(O)c1ccc(CN2C(=O)c3ccc(Oc4ccc([N+](=O)[O-])cc4)cc3C2=O)cc1
cell number change: -11.9%
AC50 [2]: 16.4 µM [falling, partial curve, poor fit]

COc1cc(CN(C)Cc2cc(=O)oc3cc(C)c(Cl)cc23)ccc1OC(F)F
cell number change: 24.4%
AC50 [2]: 7.31 µM [falling, single point]

Cc1ccc2cc(CN(C(=O)c3cccs3)c3ccccc3)c(=O)[nH]c2c1
cell number change: 2.22%

COCCNc1nc(-c2ccccc2)nc2c1oc1ccccc12
cell number change: 56.2%
AC50 [1]: 0.82 µM [rising, full curve]
AC50 [2]: 14.6 µM [rising, partial curve]

COc1cccc(NC(=S)NCCN2CCOCC2)c1
cell number change: -8.06%
AC50 [2]: 0.231 µM [falling, full curve, poor fit]

CC(=O)c1cnc2nc(C)nn2c1C
cell number change: 2.79%
AC50 [2]: 0.0058 µM [rising, full curve]

CCOC(=O)c1cnc2cc(C)ccn2c1=O
cell number change: 4.34%
AC50 [2]: 6.51 µM [rising, partial curve, poor fit]

Cc1ccc(NC(=O)Nn2cnnc2)cc1
AC50 [2]: 0.58 µM [rising, single point]

Cc1cnn(CCC(=O)NNC(=S)NCC(C)C)c1
cell number change: 1.57%

CCn1c(C)c2c([n+]1CC)CC(C)(C)CC2=O
cell number change: 0.95%
AC50 [2]: 18.4 µM [falling, single point]

COc1ccc(N(CC(=O)NC(C)c2ccccc2)S(=O)(=O)c2ccc(C)cc2)cc1 (stereo not drawn)
cell number change: -5.26%
AC50 [2]: 35.5 µM [falling, single point]

CC(C)CCNC(=O)CNC(=O)c1cccs1
cell number change: -6.37%

COc1cccc(-c2nn(C)c3sc(C(=O)N4CCN(c5ccccc5)CC4)cc23)c1
cell number change: -16%
AC50 [2]: 0.517 µM [rising, full curve]

CCc1nc2ccc(C(=O)Nc3ccc(NC(C)=O)cc3)cc2nc1CC
cell number change: 5.03%
AC50 [2]: 0.13 µM [rising, full curve, poor fit]

CCOC(=O)Cc1csc(NC(=O)CSc2nnc(-n3nc(C)cc3C)c3ccccc23)n1
AC50 [1]: 0.146 µM [falling, single point]

CCOc1ccc(NC(=O)CCc2c(C)nn(-c3ccc(N4CCCCC4)nn3)c2C)cc1
cell number change: -30.4%
AC50 [1]: 0.326 µM [falling, full curve, poor fit]

Nc1cc(N)nc(SCc2cc(=O)oc3cc4c(cc23)CCC4)n1
cell number change: 19.5%
AC50 [2]: 2.06 µM [rising, partial curve]

Cc1c(C=O)c(Cl)n(C)c(=O)c1C#N
cell number change: -91.5%

COc1cc(C(=O)NCC2CCCO2)ccc1OCc1ccccc1 (stereo not drawn)
cell number change: 23.1%

CCN(CC(=O)Nc1ccc(NC(C)=O)cc1)C(=O)CCCc1c[nH]c2ccccc12
cell number change: -65.7%
AC50 [1]: 10.3 µM [falling, partial curve]
AC50 [2]: 0.103 µM [falling, full curve, poor fit]

CC1(C)CC(=O)c2ccc(O)cc2O1
cell number change: -51%
AC50 [1]: 0.116 µM [falling, full curve, poor fit]
AC50 [2]: 16.4 µM [falling, single point]

COC(=O)c1ccccc1NC(=O)Cn1c(SC)c(F)cnc1=O
cell number change: -15.2%
AC50 [2]: 6.51 µM [falling, single point]

COc1cccc(NC(=O)COc2ccc(C(=S)N3CCN(C)CC3)cc2OC)c1
AC50 [2]: 7.31 µM [falling, partial curve]

Cc1c(NC(=O)CN2CCCc3ccccc32)c(=O)n(-c2ccccc2)n1C
cell number change: -20.9%
AC50 [2]: 13 µM [rising, partial curve]

CCO/C=N/Nc1nc(C(F)(F)F)nc2c1cnn2Cc1ccccc1
cell number change: -39.3%
AC50 [1]: 18.4 µM [falling, single point]
AC50 [2]: 29.1 µM [falling, single point]

O=C(NCCN1CCOCC1)Nc1ccccc1
cell number change: -23.2%
AC50 [2]: 18.4 µM [falling, single point]

Cc1ccsc1/C=N/n1c(-c2ccccc2)n[nH]c1=S
cell number change: -66.7%
AC50 [1]: 0.651 µM [falling, full curve, poor fit]

COc1ccc2nc(N3CCCC3)c(C#N)cc2c1
AC50 [1]: 6.51 µM [rising, single point]
AC50 [2]: 2.31 µM [rising, partial curve]

O=C(CSc1nccn(-c2ccc(Br)cc2)c1=O)NC1CCCC1
AC50 [1]: 3.66 µM [rising, partial curve, poor fit]

COc1ccc(/C=N/NC(=O)c2[nH]c3ccc(Br)cc3c2-c2ccccc2)cc1
AC50 [1]: 0.82 µM [falling, full curve, poor fit]

Cc1ccc(S(=O)(=O)N2CCN(C(=O)C3CCN(C(=O)c4ccc(F)cc4)CC3)CC2)c(C)c1
cell number change: 60.2%
AC50 [1]: 9.2 µM [rising, partial curve]

NC(=O)CN1C(=O)C(=O)N(Cc2cccc(Cl)c2)C1=O
cell number change: 22.6%
AC50 [2]: 10.3 µM [rising, partial curve]

Cc1cc(SCc2ccccc2Cl)nc(=O)[nH]1
cell number change: 32%
AC50 [1]: 3.66 µM [rising, full curve]

CN(C)C(CNC(=O)c1ccc(NS(=O)(=O)c2cccc([N+](=O)[O-])c2)cc1)c1ccco1 (stereo not drawn)
cell number change: -22.3%
AC50 [2]: 25.9 µM [falling, single point]

Cn1c(SCC(=O)c2ccc3c(c2)OCO3)nnc1C1COc2ccccc2O1 (stereo not drawn)
AC50 [1]: 0.517 µM [rising, full curve]

O=C(Cc1ccc(Cl)cc1)NCCc1cnc[nH]1
cell number change: 6.38%
AC50 [2]: 29.1 µM [falling, single point]

CCOC(=O)c1ccc(NC(=O)NNS(=O)(=O)c2cc(OC)ccc2OC)cc1
cell number change: -37.3%
AC50 [1]: 8.2 µM [falling, partial curve]

CCC(C(=O)OC(C)C(=O)Nc1ccc(Cl)cn1)c1ccccc1 (stereo not drawn)
cell number change: -4.19%

Cn1c(SCC(=O)Nc2ncc(C(F)(F)F)cc2Cl)nnc1-c1ccc(Cl)cc1
AC50 [1]: 1.16 µM [rising, full curve]

CCOC(=O)C1=C(C)Nc2ccccc2N=C1NC(=O)C(c1ccccc1)c1ccccc1
cell number change: 18.5%
AC50 [1]: 3.26 µM [falling, partial curve]
AC50 [2]: 13 µM [falling, partial curve]

O=C(CSc1nnc(Nc2ccccc2)s1)NCCN1C(=O)CSC1=O
cell number change: -15.4%
AC50 [2]: 20.6 µM [falling, partial curve]

CCCCNC(=S)N(C)/N=C/c1sc(N2CCCCC2)nc1-c1cccs1
cell number change: -57.3%
AC50 [1]: 23.1 µM [falling, partial curve]
AC50 [2]: 2.59 µM [falling, full curve, poor fit]

Cc1nn(CCc2nn[nH]n2)c2nc(C(F)(F)F)cc(C(F)(F)F)c12
cell number change: -14.3%

C(=N\n1cnnc1)/c1ccccc1OCCOc1ccccc1
cell number change: -11.4%
AC50 [2]: 0.103 µM [rising, full curve, poor fit]
